In assay [1] the target is T1, HDA15-YFP^N (Arabidopsis thaliana) (UniProt Q8GXJ1).
T1 sequence: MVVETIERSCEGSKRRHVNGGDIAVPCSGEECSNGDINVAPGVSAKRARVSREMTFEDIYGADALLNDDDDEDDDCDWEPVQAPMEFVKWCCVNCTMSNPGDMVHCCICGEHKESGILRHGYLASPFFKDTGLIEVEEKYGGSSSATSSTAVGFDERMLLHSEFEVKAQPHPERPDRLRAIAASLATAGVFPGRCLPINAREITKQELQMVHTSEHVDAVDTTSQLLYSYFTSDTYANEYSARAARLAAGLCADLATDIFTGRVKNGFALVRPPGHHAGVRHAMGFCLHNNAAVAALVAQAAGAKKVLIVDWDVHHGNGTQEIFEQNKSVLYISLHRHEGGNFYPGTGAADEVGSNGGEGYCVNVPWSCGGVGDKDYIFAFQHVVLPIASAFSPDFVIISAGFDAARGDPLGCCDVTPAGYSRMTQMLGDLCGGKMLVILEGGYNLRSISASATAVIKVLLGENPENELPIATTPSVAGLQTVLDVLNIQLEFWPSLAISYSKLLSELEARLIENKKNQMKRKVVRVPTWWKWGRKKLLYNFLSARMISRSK
The experiment in a line: split reporter.

Assay [2] concerns the target T2, HDA15 (endogenous) (Arabidopsis thaliana (endogenous in Col-0)) (UniProt Q8GXJ1).
T2 sequence: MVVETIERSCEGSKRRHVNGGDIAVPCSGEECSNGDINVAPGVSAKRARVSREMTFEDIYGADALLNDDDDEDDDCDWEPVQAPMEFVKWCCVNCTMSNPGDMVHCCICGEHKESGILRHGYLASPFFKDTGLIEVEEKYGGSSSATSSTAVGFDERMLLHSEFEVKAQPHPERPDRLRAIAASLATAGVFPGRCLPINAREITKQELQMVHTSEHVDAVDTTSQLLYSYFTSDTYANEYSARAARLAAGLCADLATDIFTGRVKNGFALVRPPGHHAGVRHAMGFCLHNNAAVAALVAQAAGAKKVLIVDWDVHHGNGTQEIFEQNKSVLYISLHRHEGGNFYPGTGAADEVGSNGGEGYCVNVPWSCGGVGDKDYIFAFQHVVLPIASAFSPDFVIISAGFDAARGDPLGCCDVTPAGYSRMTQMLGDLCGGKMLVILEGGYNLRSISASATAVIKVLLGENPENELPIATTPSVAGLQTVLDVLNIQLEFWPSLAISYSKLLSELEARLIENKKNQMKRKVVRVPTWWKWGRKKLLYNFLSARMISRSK
The assay is described as follows: co-IP.

Assay [3] deals with T2, HDA15 (endogenous) (Arabidopsis thaliana (endogenous in Col-0)). The experiment in a line: co-IP. This is another data set of the same source.

Read-outs that look alike come from different tables or passages of the source. Results are given in words; binding and its absence hold for the method and conditions named. In cells and extracts the contact can be indirect. Some results given as binding are weak or reduced against the parent protein; the word gives no strength. Where a sequence is shown, tags or fusion partners need not be part of it.

B1: MAC3A-YFP^C (protein, UniProt Q94BR4 1-523)
chain: MNCAISGEVPEEPVVSKKSGLLYEKRLIQTHISDYGKCPVTGEPHTLDDIVPIKTGKIVKPKPLHTASIPGLLGTFQTEWDSLMLSNFALEQQLHTARQELSHALYQHDAACRVIARLKKERDESRQLLAEAERQLPAAPEVATSNAALSNGKRGIDDGEQGPNAKKMRLGISAEVITELTDCNAALSQQRKKRQIPKTLASVDALEKFTQLSSHPLHKTNKPGIFSMDILHSKDVIATGGIDTTAVLFDRPSGQILSTLTGHSKKVTSIKFVGDTDLVLTASSDKTVRIWGCSEDGNYTSRHTLKDHSAEVRAVTVHATNKYFVSASLDSTWCFYDLSSGLCLAQVTDASENDVNYTAAAFHPDGLILGTGTAQSIVKIWDVKSQANVAKFGGHNGEITSISFSENGYFLATAALDGVRLWDLRKLKNFRTFDFPDANSVEFDHSGSYLGIAASDIRVFQAASVKAEWNPIKTLPDLSGTGKATSVKFGLDSKYIAVGSMDRNLRIFGLPDDDNTEDSAQDS
Regarding B1, in assay [1], the binding result was “binds”.

B2: GFP-MAC3A (protein, UniProt Q94BR4 1-523)
chain: MNCAISGEVPEEPVVSKKSGLLYEKRLIQTHISDYGKCPVTGEPHTLDDIVPIKTGKIVKPKPLHTASIPGLLGTFQTEWDSLMLSNFALEQQLHTARQELSHALYQHDAACRVIARLKKERDESRQLLAEAERQLPAAPEVATSNAALSNGKRGIDDGEQGPNAKKMRLGISAEVITELTDCNAALSQQRKKRQIPKTLASVDALEKFTQLSSHPLHKTNKPGIFSMDILHSKDVIATGGIDTTAVLFDRPSGQILSTLTGHSKKVTSIKFVGDTDLVLTASSDKTVRIWGCSEDGNYTSRHTLKDHSAEVRAVTVHATNKYFVSASLDSTWCFYDLSSGLCLAQVTDASENDVNYTAAAFHPDGLILGTGTAQSIVKIWDVKSQANVAKFGGHNGEITSISFSENGYFLATAALDGVRLWDLRKLKNFRTFDFPDANSVEFDHSGSYLGIAASDIRVFQAASVKAEWNPIKTLPDLSGTGKATSVKFGLDSKYIAVGSMDRNLRIFGLPDDDNTEDSAQDS
Regarding B2, the binding result in assay [2] is listed as “binds”.

B3: MAC3B-YFP^C (protein, UniProt O22785 1-525)
chain: MNCAISGEVPVEPVVSTKSGLLFERRLIERHISDYGKCPVTGEPLTIDDIVPIKTGEIIKPKTLHTASIPGLLGTFQNEWDGLMLSNFALEQQLHTARQELSHALYQHDSACRVIARLKKERDEARQLLAEVERHIPAAPEAVTANAALSNGKRAAVDEELGPDAKKLCPGISAEIITELTDCNAALSQKRKKRQIPQTLASIDTLERFTQLSSHPLHKTNKPGICSMDILHSKDVIATGGVDATAVLFDRPSGQILSTLTGHSKKVTSVKFVGDSDLVLTASADKTVRIWRNPGDGNYACGYTLNDHSAEVRAVTVHPTNKYFVSASLDGTWCFYDLSSGSCLAQVSDDSKNVDYTAAAFHPDGLILGTGTSQSVVKIWDVKSQANVAKFDGHTGEVTAISFSENGYFLATAAEDGVRLWDLRKLRNFKSFLSADANSVEFDPSGSYLGIAASDIKVYQTASVKAEWNLIKTLPDLSGTGKATCVKFGSDAQYVAVGSMDRNLRIFGLPGDEKANVDDDSAQDS
On to B3, for which, in assay [1], the binding entry is on record as “binds”.

B4: GFP-MAC3B (protein, UniProt O22785 1-525)
chain: MNCAISGEVPVEPVVSTKSGLLFERRLIERHISDYGKCPVTGEPLTIDDIVPIKTGEIIKPKTLHTASIPGLLGTFQNEWDGLMLSNFALEQQLHTARQELSHALYQHDSACRVIARLKKERDEARQLLAEVERHIPAAPEAVTANAALSNGKRAAVDEELGPDAKKLCPGISAEIITELTDCNAALSQKRKKRQIPQTLASIDTLERFTQLSSHPLHKTNKPGICSMDILHSKDVIATGGVDATAVLFDRPSGQILSTLTGHSKKVTSVKFVGDSDLVLTASADKTVRIWRNPGDGNYACGYTLNDHSAEVRAVTVHPTNKYFVSASLDGTWCFYDLSSGSCLAQVSDDSKNVDYTAAAFHPDGLILGTGTSQSVVKIWDVKSQANVAKFDGHTGEVTAISFSENGYFLATAAEDGVRLWDLRKLRNFKSFLSADANSVEFDPSGSYLGIAASDIKVYQTASVKAEWNLIKTLPDLSGTGKATCVKFGSDAQYVAVGSMDRNLRIFGLPGDEKANVDDDSAQDS
In the case of B4, the binding result in assay [2] and in assay [3] was “binds” each time.

For the origin of these results see doi:10.1101/2020.11.17.386672.
